Source: publication PMC3049795
Results are given in words; binding and its absence hold for the method and conditions named. In cells and extracts the contact can be indirect. Some binding calls cover weakened binding; strength is not graded here. For some assays here: Sequences can lack the tags named with a protein.

Experiments:
T7-tagged ETK = target: T1, T7-tagged ETK (UniProt P51813); experiment: co-IP; 293T cells co-transfected with T7-Etk and GFP-Bcl-XL; immunoprecipitation with anti-T7 or anti-GFP, immunoblotting; lysis buffer 20 mM Tris/HCl pH 7.4, 150 mM NaCl, 1 mM EDTA, 1 mM EGTA, 1% Triton X-100; antibodies overnight at 4°C
T1 sequence: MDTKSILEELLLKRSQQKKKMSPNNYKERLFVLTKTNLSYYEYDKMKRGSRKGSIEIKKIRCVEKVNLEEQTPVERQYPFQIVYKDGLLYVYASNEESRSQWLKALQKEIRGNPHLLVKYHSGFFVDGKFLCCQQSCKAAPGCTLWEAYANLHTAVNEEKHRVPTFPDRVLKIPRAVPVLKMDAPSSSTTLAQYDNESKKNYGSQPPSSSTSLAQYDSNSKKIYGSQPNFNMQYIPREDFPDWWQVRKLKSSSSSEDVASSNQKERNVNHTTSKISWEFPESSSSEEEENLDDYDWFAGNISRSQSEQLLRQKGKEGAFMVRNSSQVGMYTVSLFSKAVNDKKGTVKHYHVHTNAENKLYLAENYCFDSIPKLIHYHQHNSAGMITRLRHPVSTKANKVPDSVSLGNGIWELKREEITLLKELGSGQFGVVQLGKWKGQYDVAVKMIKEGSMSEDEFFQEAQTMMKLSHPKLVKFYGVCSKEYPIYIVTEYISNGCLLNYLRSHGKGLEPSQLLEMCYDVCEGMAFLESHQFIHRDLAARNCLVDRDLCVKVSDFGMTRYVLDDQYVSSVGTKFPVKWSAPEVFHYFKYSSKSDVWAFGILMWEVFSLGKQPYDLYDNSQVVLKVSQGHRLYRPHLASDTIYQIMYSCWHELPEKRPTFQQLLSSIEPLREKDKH

[1] = target: T2, Epithelial and endothelial tyrosine kinase (ETK) (human (endogenous in UM-UC-3 and T24)) (UniProt P51813); experiment: co-IP; total cell extracts of UM-UC-3 and T24 cells immunoprecipitated with anti-ETK or IgG control, immunoblotting; lysis buffer 20 mM Tris/HCl pH 7.4, 150 mM NaCl, 1 mM EDTA, 1 mM EGTA, 1% Triton X-100; antibodies overnight at 4°C, protein A or G-Sepharose
T2 sequence: T1 sequence

binding (T7-tagged ETK)	binding [1]	Substance
binds	–	GFP-tagged Bcl-XL (from UniProt Q07817-1 1-233)
–	binds	Bcl-XL (from UniProt Q07817-1 1-233)
